{"source": "PubChem BioAssay AID935", "about": "(National Center for Advancing Translational Sciences (NCATS), 2007)", "note": "The inconclusive results got no clear call from the source. Potencies beside an inconclusive call are fits to weak or partial responses and may not hold up."}
{"assay": "Confirmation Concentration-Response Assay for Identification of Small Molecule Agonists of Stat Signaling Pathway", "details": "SIE-bla cells, IL-6 STAT beta-lactamase reporter, 5 h; calls by dose curve", "text": "NIH Molecular Libraries Screening Centers Network [MLSCN] NIH Chemical Genomics Center [NCGC] MLSCN Grant: None NCGC Assay Overview: This assay is a retest of actives identified from the Stat signaling pathway assay (PubChem AID 446). The Stat assay is cell-based and measures Interleukin 6 (IL-6) mediated modulation of a beta-lactamase reporter gene controlled by a STAT inducible element (SIE-bla cells, Invitrogen). IL-6 is a cytokine that signals via the JAK/STAT pathway and is implicated in cancer and inflammation. SIE-bla cells are induced by IL-6 at 40 pM EC50 and inhibited by the pan JAK inhibitor, 2-(1,1-Dimethylethyl)-9-fluoro-3,6-dihydro-7H-benz[h]-imidaz[4,5-f]isoquinolin-7-one, at approximately 10 nM IC50. Plated cells were incubated overnight and on the following day, stimulated with 40 pM IL-6 for 5 hrs. The assay was stimulated with an EC50 of IL-6 to retest activators of STAT signaling.\nNCGC Assay Protocol Summary: Cells were trypsinized, washed in assay medium (AM, OPTI MEM with 0.5% fetal bovine serum, 0.1 mM nonessential amino acids, 1 mM sodium pyruvate, 10mM HEPES pH 7.3, 100U/ml penicillin, and 100 ug/ml streptomycin) and suspended at […] in AM. Approximately 2500 cells in 5 uL/well was dispensed into 1536-well plates and the cells were incubated overnight at 37 C. 23 nL of compound were delivered by a pin tool and 1 uL of IL-6 (40 pM final concentration in AM) was added. After plates were incubated at 37 C for 5 hrs, 1uL of detector mix (LiveBLAzerTM, Invitrogen) was added, the plates incubated at room temperature for 2.5 hrs, and fluorescence intensity at 460 and 530 nm emissions was measured at 405 nm excitation by an Envision (Perkin Elmer)."}
{"smiles": "COc1ccc(C[C@@H]2C(=O)N[C@H](C)C(=O)N(C)[C@@H]3C(=O)N(C)[C@@H](Cc4ccc(O)c(c4)Oc4ccc(cc4)[C@H]3O)C(=O)N[C@@H](C)C(=O)N[C@H](C)C(=O)N2C)cc1", "Potency": "inconclusive: 0.398 µM [inhibitor, full curve]"}
{"smiles": "CC(C)C[C@H]1C(=O)N2CCC[C@H]2[C@]2(O)O[C@](NC(=O)[C@@H]3C=C4c5cccc6[nH]c(Br)c(c56)CC4N(C)C3)(C(C)C)C(=O)N12", "note": "(stereo partly specified)", "Potency": "inconclusive: 12.6 µM [inhibitor, full curve]"}
{"smiles": "CC(C)[C@H](CO)Nc1nc(Nc2cccc(Cl)c2)c2ncn(C(C)C)c2n1", "Potency": "inconclusive: 5.01 µM [inhibitor, full curve]"}
{"smiles": "C[C@]1(C(=O)O)[C@@H]2CC[C@@H](O2)[C@@]1(C)C(=O)O", "Potency": "inconclusive: 10 µM [inhibitor, full curve]"}
{"smiles": "CC[C@@H]1CN2CCc3cc(OC)c(OC)cc3[C@H]2C[C@@H]1C[C@@H]1NCCc2cc(OC)c(OC)cc21", "Potency": "inconclusive: 0.398 µM [inhibitor, full curve]"}
{"smiles": "CCn1cnc2c(Nc3cccc(Cl)c3)nc(N[C@@H]3CCCC[C@H]3N)nc21", "Potency": "inconclusive: 3.98 µM [inhibitor, full curve]"}
